In test [1] the target is Filamin-A (FLNA) of FLNA-replete A7 cells (human (in A7 human melanoma cells)) (UniProt P21333). Put plainly: co-IP; A7 cells stably expressing GFP-PC2, with or without over-expressed FLNAC (Fig 4B); precipitating antibody of this panel not stated.
Test [2] concerns the target T1, GFP-tagged polycystin-2 (GFP-PC2) (UniProt Q13563).
T1 sequence: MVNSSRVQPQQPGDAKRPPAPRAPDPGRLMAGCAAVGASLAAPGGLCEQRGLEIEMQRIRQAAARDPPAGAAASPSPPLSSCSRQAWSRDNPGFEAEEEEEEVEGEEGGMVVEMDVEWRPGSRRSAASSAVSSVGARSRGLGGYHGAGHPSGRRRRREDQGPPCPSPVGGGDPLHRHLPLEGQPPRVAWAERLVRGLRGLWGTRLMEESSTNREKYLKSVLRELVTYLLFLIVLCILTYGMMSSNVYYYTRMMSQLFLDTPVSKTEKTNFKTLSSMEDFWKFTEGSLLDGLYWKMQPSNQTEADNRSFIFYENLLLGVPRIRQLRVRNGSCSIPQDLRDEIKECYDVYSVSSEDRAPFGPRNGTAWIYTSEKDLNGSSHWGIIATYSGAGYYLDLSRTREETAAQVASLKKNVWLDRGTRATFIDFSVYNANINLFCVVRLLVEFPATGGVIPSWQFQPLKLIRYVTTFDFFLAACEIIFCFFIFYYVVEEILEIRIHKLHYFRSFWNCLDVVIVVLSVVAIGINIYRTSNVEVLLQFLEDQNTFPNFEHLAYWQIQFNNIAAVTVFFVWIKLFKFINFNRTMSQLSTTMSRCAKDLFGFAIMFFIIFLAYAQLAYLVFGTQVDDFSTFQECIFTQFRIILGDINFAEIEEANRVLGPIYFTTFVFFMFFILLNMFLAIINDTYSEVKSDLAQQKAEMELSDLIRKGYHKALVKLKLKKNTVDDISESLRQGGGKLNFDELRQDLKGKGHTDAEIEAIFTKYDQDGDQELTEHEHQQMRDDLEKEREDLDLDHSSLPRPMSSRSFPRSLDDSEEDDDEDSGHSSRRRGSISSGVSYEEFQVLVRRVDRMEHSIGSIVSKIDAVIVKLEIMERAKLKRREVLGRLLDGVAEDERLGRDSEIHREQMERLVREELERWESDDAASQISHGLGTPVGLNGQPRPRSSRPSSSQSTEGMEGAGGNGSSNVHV
As to the kind of experiment: co-IP; anti-GFP antibody and protein G sepharose on lysates of M2 and A7 cells stably expressing GFP-PC2; cells with transient FLNAC, or with control or FLNA knock-down; CelLytic-M lysis buffer, 4°C.

Sequences of proteins named here, by UniProt entry; tags and fusion partners are left off. A change or cut given only in a name is not applied to a line headed by its entry.
UniProt P21333: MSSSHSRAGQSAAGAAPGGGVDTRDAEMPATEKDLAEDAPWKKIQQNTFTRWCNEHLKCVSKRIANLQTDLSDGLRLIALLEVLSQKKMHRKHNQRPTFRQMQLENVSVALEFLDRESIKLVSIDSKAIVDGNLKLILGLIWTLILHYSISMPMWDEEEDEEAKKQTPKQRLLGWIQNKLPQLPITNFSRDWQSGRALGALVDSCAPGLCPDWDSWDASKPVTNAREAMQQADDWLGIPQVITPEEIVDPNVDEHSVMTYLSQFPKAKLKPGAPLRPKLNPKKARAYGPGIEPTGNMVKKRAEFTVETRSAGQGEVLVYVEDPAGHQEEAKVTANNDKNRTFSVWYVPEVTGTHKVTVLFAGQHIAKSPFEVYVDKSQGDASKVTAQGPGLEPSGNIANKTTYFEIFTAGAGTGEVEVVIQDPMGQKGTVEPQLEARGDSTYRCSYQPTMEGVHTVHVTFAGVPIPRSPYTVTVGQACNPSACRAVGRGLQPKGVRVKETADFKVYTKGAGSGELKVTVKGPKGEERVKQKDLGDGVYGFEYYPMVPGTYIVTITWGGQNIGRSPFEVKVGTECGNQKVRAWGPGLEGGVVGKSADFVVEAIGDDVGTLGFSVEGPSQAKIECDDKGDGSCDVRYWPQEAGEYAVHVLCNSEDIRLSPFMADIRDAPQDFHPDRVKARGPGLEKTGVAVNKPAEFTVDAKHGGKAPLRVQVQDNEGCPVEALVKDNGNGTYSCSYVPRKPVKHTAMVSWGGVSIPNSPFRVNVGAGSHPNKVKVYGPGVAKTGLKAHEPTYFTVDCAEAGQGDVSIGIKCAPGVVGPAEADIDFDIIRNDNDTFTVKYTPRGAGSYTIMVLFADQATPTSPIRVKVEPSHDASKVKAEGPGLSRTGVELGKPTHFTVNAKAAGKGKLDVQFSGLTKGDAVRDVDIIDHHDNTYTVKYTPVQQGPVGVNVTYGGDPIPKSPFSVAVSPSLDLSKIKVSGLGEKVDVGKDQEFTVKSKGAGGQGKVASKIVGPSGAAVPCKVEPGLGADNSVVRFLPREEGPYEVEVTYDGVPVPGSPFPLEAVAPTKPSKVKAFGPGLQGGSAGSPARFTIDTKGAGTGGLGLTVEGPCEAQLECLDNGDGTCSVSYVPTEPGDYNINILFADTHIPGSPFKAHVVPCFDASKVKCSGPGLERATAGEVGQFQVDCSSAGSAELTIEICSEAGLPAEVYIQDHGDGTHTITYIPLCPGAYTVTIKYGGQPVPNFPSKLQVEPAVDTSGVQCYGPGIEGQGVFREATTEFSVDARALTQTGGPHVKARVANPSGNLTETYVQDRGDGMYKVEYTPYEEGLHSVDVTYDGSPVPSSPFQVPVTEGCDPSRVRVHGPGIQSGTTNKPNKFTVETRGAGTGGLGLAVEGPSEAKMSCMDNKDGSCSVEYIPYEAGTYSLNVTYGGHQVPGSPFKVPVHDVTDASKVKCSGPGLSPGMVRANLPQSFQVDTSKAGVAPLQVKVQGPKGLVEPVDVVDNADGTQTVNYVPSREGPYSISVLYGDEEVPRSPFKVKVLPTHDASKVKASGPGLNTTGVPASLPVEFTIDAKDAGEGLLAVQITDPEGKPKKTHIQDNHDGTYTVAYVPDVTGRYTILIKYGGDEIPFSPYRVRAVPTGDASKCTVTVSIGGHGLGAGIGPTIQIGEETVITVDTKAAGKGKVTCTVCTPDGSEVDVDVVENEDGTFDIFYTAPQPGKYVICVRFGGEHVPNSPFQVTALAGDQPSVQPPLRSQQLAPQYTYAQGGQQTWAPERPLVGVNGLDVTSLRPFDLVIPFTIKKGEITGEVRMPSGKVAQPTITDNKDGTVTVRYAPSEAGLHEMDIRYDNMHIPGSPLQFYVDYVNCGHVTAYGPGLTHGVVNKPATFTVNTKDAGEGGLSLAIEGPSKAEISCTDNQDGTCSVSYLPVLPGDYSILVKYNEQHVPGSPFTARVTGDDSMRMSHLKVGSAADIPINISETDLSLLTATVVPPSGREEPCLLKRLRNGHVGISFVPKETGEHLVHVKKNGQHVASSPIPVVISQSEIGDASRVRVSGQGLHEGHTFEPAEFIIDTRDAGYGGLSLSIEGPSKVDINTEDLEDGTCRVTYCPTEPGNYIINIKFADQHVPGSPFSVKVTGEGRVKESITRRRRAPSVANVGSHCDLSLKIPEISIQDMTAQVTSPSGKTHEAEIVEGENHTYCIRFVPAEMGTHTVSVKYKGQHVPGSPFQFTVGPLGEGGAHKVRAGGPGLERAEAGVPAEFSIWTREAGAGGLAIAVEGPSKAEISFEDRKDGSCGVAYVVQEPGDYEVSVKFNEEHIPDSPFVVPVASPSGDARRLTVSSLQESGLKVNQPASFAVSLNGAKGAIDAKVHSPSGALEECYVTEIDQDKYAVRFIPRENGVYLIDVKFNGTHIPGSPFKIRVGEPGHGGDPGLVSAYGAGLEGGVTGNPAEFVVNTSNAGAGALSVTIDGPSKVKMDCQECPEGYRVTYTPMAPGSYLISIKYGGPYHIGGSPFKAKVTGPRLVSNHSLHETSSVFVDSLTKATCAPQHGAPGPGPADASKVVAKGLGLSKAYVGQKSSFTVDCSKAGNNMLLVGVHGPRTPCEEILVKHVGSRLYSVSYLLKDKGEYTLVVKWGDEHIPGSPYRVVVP
UniProt Q8BTM8: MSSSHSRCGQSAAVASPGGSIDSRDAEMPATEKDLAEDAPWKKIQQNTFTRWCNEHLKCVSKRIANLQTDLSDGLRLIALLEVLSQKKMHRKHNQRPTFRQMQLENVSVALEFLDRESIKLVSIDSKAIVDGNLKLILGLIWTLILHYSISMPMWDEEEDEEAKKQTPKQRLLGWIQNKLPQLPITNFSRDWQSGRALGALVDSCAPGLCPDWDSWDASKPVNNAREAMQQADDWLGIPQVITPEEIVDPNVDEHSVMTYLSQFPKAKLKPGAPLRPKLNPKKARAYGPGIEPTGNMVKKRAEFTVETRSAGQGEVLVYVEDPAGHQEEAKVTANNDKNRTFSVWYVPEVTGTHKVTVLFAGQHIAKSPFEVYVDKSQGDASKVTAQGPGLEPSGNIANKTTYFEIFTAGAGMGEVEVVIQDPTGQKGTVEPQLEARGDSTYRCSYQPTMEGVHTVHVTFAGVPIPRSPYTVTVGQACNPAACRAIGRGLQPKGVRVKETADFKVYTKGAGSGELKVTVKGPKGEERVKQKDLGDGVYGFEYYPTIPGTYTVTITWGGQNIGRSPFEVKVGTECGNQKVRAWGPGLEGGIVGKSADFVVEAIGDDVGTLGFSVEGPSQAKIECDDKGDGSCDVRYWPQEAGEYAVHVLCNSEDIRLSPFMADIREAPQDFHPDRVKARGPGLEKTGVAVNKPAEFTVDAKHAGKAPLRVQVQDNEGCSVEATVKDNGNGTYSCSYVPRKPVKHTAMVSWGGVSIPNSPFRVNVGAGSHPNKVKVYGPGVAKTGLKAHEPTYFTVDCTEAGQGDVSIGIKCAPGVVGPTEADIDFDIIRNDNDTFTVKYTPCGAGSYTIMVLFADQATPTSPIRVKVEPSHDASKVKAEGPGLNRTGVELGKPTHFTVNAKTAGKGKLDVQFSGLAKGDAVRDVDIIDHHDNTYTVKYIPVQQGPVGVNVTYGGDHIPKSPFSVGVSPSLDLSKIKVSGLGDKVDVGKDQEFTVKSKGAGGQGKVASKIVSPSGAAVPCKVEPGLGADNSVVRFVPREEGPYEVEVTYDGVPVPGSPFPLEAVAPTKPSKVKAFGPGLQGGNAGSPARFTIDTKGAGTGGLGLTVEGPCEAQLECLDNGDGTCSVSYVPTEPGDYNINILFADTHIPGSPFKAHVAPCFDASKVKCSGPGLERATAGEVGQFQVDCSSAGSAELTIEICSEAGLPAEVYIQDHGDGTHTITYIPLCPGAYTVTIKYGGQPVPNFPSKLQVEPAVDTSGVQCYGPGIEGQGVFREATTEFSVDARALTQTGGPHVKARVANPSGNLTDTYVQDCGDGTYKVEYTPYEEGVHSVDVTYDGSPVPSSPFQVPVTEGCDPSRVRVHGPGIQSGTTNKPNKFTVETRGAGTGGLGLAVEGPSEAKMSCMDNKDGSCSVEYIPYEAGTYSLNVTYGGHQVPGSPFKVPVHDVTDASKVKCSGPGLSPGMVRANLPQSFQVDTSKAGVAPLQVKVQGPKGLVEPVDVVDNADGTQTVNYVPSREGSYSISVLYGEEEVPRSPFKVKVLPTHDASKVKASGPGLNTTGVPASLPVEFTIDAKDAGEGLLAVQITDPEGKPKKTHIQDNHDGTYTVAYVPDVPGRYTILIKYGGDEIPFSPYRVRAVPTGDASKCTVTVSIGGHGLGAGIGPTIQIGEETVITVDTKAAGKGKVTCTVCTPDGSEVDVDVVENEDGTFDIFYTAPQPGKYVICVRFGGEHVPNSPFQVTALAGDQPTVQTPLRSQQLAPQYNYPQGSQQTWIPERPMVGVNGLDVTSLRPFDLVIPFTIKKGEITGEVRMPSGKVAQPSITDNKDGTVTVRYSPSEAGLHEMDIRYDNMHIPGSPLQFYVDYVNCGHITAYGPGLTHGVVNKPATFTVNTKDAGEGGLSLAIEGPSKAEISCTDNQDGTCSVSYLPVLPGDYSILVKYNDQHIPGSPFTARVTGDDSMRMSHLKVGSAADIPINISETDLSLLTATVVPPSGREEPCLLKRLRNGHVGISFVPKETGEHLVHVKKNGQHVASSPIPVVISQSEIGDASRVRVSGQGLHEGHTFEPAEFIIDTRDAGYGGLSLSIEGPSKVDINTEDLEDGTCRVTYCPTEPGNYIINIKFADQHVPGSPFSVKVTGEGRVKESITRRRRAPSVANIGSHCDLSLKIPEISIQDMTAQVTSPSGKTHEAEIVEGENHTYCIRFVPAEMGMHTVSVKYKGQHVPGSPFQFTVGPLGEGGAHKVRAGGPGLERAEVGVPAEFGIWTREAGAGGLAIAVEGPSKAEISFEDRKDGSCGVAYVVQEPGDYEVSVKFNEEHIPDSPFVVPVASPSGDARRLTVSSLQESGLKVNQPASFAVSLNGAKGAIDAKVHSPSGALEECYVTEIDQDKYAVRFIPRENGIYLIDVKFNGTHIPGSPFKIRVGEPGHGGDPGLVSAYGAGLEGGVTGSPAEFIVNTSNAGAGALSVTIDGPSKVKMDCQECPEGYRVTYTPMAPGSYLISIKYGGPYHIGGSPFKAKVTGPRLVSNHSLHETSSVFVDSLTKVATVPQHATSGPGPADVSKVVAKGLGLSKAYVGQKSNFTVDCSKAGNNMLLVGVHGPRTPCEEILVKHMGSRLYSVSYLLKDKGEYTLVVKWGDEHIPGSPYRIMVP

Test [3] addresses T1, GFP-tagged polycystin-2 (GFP-PC2). Put plainly: cell surface biotinylation with avidin agarose pull-down; A7 cells (native or stably expressing GFP-PC2, with or without FLNAC over-expression); Sulfo-NHS-SS-Biotin at 4°C; biotinylated proteins captured on avidin agarose and immunoblotted.
For test [4] the target is unchanged. Put plainly: co-IP; A7 cells stably expressing GFP-PC2, with or without over-expressed FLNAC (Fig 4B); precipitating antibody of this panel not stated.
In test [5] the target is T2, Polycystin-2 (PC2), endogenous in HeLa cells (human (endogenous in HeLa)) (UniProt Q13563).
T2 sequence: T1 sequence
As to the kind of experiment: co-IP; PC2 (H-280) antibody on HeLa lysate, endogenous proteins, with or without FLNA knock-down.

Test [6] has as its target Filamin-A (FLNA) of FLNA-replete A7 cells (human (in A7 human melanoma cells)) (UniProt P21333). Put plainly: far-Western, overlay or dot blot; as a3, but the membrane was co-incubated with purified GST-PC2C and purified His-FLNAC (competition); only the binder purified.
Test [7] addresses Filamin-A (FLNA), endogenous in HeLa and HEK293 cells (human (endogenous in HeLa and HEK293)) (UniProt P21333). As to the kind of experiment: co-IP; HeLa (transient GFP-PC2), IMCD and HEK293 (stable GFP-PC2) lysates with nothing added, 1 mM Ca or 1 mM EGTA; in HeLa, IP with FLNA (E-3) and IB with GFP (EU4); IMCD and HEK293 with and without FLNA knock-down.
Test [8] deals with Filamin-A (FLNA), endogenous in mouse IMCD cells (mouse (endogenous in IMCD)) (UniProt Q8BTM8). The description is as above.
Test [9] concerns the target Filamin-A (FLNA) of FLNA-replete A7 cells (human (in A7 human melanoma cells)) (UniProt P21333). Put plainly: far-Western, overlay or dot blot; 50 μg lysate of A7 and M2 cells stably expressing PC2, separated by SDS-PAGE, transferred to nitrocellulose, denatured and renatured, then incubated with purified GST-PC2C alone; bound protein detected with PC2 (H-280) antibody; only the binder purified.

We go through 6 molecules from article PMC4393133.

Results are given in words; binding and its absence hold for the method and conditions named. For part of these data: Binding seen in cells or lysates may run through a third protein. Some entries that bind do so weakly or less than the wild type. For part of these data: Sequences can lack the tags named with a protein.

“FLNA C-terminus (FLNAC, aa 2150-2647), expressed in cells (from UniProt P21333 2150-2647) (domain or fragment)”: the binding result in [1], in test [2] and in [3] was “binds” throughout.

With “Filamin-A (FLNA) of FLNA-replete A7 cells (from UniProt P21333 1-2647)”, the binding result in test [4], in [2] and in [3] was “binds” throughout.

For “Filamin-A (FLNA), endogenous in HeLa and HEK293 cells (from UniProt P21333 1-2647)”, in test [5], the binding result is “binds”.

Turning to “His-FLNAC (FLNA C-terminus, aa 2150-2647), purified from E. coli (from UniProt P21333 2150-2647) (domain or fragment)”, the binding result in test [6] was “binds”.

B1: GFP-tagged polycystin-2 (GFP-PC2) (protein, UniProt Q13563 1-968)
chain: T1 sequence
On to B1, for which the binding result in [7] and in [8] was “binds” in each case.

B2: GST-PC2C (C-terminus of PC2, aa 682-968) (domain or fragment, UniProt Q13563 682-968)
chain: DTYSEVKSDLAQQKAEMELSDLIRKGYHKALVKLKLKKNTVDDISESLRQGGGKLNFDELRQDLKGKGHTDAEIEAIFTKYDQDGDQELTEHEHQQMRDDLEKEREDLDLDHSSLPRPMSSRSFPRSLDDSEEDDDEDSGHSSRRRGSISSGVSYEEFQVLVRRVDRMEHSIGSIVSKIDAVIVKLEIMERAKLKRREVLGRLLDGVAEDERLGRDSEIHREQMERLVREELERWESDDAASQISHGLGTPVGLNGQPRPRSSRPSSSQSTEGMEGAGGNGSSNVHV
As for B2, the binding entry in test [6] and in [9] was “binds” in each case.
